This is an account of results in the supplement of paper PMC3682954.

Usually cell viability stands for a read-out of living cells in per cent, often relative to untreated cells.

Structures can show the parent of a compound that is named as a salt. ± gives the standard deviation of the averaged measurements. The list shows a part of the results. Single values are uncertain, as repeats are few or missing.

In the test the test system is RAW 264.7. Description: cell viability (MTT) relative to vehicle control; higher = more viable cells. Particulars: compound concentration: 3 uM; stimulus: HMGB1 5 ug/ml, 18 h.
With `C=CCN1CCc2c(cc(O)c(O)c2Cl)C(c2ccccc2)C1` (racemic) [(±)-Chloro-APB hydrobromide], the cell viability stood at 98.2%.

With `CCc1c2c(nc3ccc(OC(=O)N4CCC(N5CCCCC5)CC4)cc13)-c1cc3c(c(=O)n1C2)COC(=O)[C@]3(O)CC` [Irinotecan Hydrochloride], the cell viability amounted to 85.2%.

For the compound `CCc1c2c(nc3ccc(OC(=O)N4CCC(N5CCCCC5)CC4)cc13)-c1cc3c(c(=O)n1C2)COC(=O)[C@]3(O)CC` [IRINOTECAN HCl )trihydrate)], the cell viability is 94.6%.

With `C[C@H]1[C@H](NC(=O)/C(=N\OC(C)(C)C(=O)O)c2csc(N)n2)C(=O)N1S(=O)(=O)O`, the cell viability amounted to 103 ± 6.5%.

As to `C[C@H]1[C@H](NC(=O)/C(=N\OC(C)(C)C(=O)O)c2csc(N)n2)C(=O)N1S(=O)(=O)O` [Aztreonam], the cell viability amounted to 89.8 ± 1.6%.

On to `CNCCC=C1c2ccccc2CCc2ccccc21`, for which the cell viability was 104%.

For the compound `CNCCC=C1c2ccccc2CCc2ccccc21` [Nortriptyline hydrochloride], the cell viability was found to be 105 ± 1%.

In the case of `O=c1onc2n1-c1cc(Br)ccc1OC2`, the cell viability turned out to be 103%.

`Cc1c(Cl)cccc1Nc1ncccc1C(=O)O` [Clonixin Lysinate]: the cell viability was 108%.

As to `CC(C)(O/N=C(\C(=O)N[C@@H]1C(=O)N2C(C(=O)[O-])=C(C[n+]3ccccc3)CS[C@H]12)c1csc(N)n1)C(=O)O` [Ceftazidime], the cell viability turned out to be 87.2%.

For `CC(C)(O/N=C(\C(=O)N[C@@H]1C(=O)N2C(C(=O)[O-])=C(C[n+]3ccccc3)CS[C@H]12)c1csc(N)n1)C(=O)O` [Ceftazidime pentahydrate], the cell viability worked out at 106%.

Turning to `CC(C)(O/N=C(\C(=O)N[C@@H]1C(=O)N2C(C(=O)[O-])=C(C[n+]3ccccc3)CS[C@H]12)c1csc(N)n1)C(=O)O`, the cell viability turned out to be 96.7%.

With `C=C1/C(=C\C=C2/CCC[C@]3(C)[C@@H]([C@H](C)CCCC(C)(C)O)CC[C@@H]23)C[C@@H](O)C[C@@H]1O`, the cell viability amounted to 98.1%.

As for `C=C1/C(=C\C=C2/CCC[C@]3(C)[C@@H]([C@H](C)CCCC(C)(C)O)CC[C@@H]23)C[C@@H](O)C[C@@H]1O` [Calcitriol], the cell viability amounted to 96.1%.

In the case of `Cc1ccc(/C(=C\CN2CCCC2)c2ccccn2)cc1` [Triprolidine hydrochloride], the cell viability came to 106 ± 5.5%.

On to `Cc1ccc(/C(=C\CN2CCCC2)c2ccccn2)cc1`, for which the cell viability is 106%.

For `NC(=O)c1ncn([C@@H]2O[C@H](CO)[C@@H](O)[C@H]2O)c1O`, the cell viability is 109%.

For `NC(=O)c1ncn([C@@H]2O[C@H](CO)[C@@H](O)[C@H]2O)c1O` [Mizoribine], the cell viability came out at 107%.

Take `O=C1C=CC(=O)c2c1ccc1c2ccc2ccccc21` [Chrysene-1,4-quinone]: the cell viability was found to be 99.5%.
